PMC12320831, “Synthesis and Biological Evaluation of New Chalcogen Semicarbazone (S, Se) and Their Azole Derivatives against Chagas Disease” (Journal of Medicinal Chemistry, 2024)

System: T. cruzi CAI/72 strain
Assay: Antiparasitic activity in C2C12 cells infected with T. cruzi CAI/72 (image-based assay)
Format: cell-based
Conditions: ratio between CC50 C2C12 and EC50 Tc CAI/72
Protocol: Antiparasitic activity and cytotoxicity of compounds were determined as described before (da Silva et al., Boudreau et al.). Mouse myoblasts cell line C2C12 (ATCCCRL-1772), were maintained in high glucose (4.5 g/L glucose) Dulbecco’s modified Eagle’s medium (DMEM Gibco), supplemented with 1% penicillin–streptomycin 10,000 U/mL (Gibco) and 5% fetal bovine serum (FBS, Sigma-Aldrich) at 37 °C with 5% CO2. parasites (CAI/72 strain, DTU TcI) were maintained by weekly coinfection with C2C12 cells. For all activity assays, C2C12 cells were infected at a 10:1 parasite-to-cell ratio with culture-derived trypomastigotes, which were harvested from the supernatant of infected C2C12 cells. After adding compounds to 384-well black clear-bottom plates (Greiner cat. no. 781091), trypomastigotes (7000 parasites/well) and C2C12 cells (700 cells/well) were seeded in a total volume of 50 μL of DMEM per well in the 384-well plates. Compounds were first tested at 10 μM. […] Plates were imaged with the automated ImageXpress MicroXL microscope (Molecular Devices) and analyzed by MetaXpress software (Molecular Devices) using a custom module optimized for this assay. Infection levels (parasites per host cell) were normalized to the positive control (40 μM BNZ) and negative control (DMSO). Antiparasitic activity (EC50) ± standard deviation (SD) and host cell cytotoxicity (C2C12 viability) values were determined from the DRC using Prism software (GraphPad Software, La Jolla, CA). Every assay has three biological replicates, each in triplicates (n = 9 data points).

| SMILES | SITc | further results |
| --- | --- | --- |
| C/C(=N\Nc1nc(C)c[se]1)c1cccc(Cl)c1.Cl [Se2i, (E)-2-(2-(1-(3-Chlorophenyl)ethylidene)hydrazineyl)-4-methyl-1,3-selenazole Hydrochloride] | > 18.98 | SITc (listed as Se 2i): higher than 10 |
| C/C(=N\NC(N)=[Se])c1ccc(Br)cc1 [Se1f, (E)-2-(1-(4-Bromophenyl)ethylidene)hydrazine-1-carboselenoamide] | > 13.00 | SITc (listed as Se 1f): higher than 10 |
| C/C(Cc1cccc(Cl)c1)=N\NC(N)=S [Compound S1m, (E)-2-(1-(3-Chlorophenyl)propan-2-ylidene)hydrazine-1-carbothioamide] | > 3.42 | – |
| O=C(Cn1ccnc1[N+](=O)[O-])NCc1ccccc1 [BZ, Benznidazole, reference compound] | > 6.91 | – |
| COc1cccc(/C(C)=N/Nc2nc(C)c[se]2)c1.Cl [Se2g, (E)-2-(2-(1-(3-Methoxyphenyl)ethylidene)hydrazineyl)-4-methyl-1,3-selenazole Hydrochloride] | > 3.75 | – |
| C/C(=N\Nc1nc(C)c[se]1)c1cccc([N+](=O)[O-])c1.Cl [Se2h, (E)-4-Methyl-2-(2-(1-(3-nitrophenyl)ethylidene)hydrazineyl)-1,3-selenazole Hydrochloride] | > 32.47 | SITc (listed as Se 2h): higher than 10 |
| CN1CCN(C(=O)N[C@@H](Cc2ccccc2)C(=O)N[C@H](/C=C/S(=O)(=O)c2ccccc2)CCc2ccccc2)CC1 [Compound K777, reference compound] | > 218.98 | – |
| C/C(=N\Nc1nc(C)c[se]1)c1ccsc1.Cl [Se2l, (E)-4-Methyl-2-(2-(1-(thiophen-3-yl)ethylidene)hydrazineyl)-1,3-selenazole Hydrochloride] | > 2.68 | – |
